Source: paper PMC11589706, “Cryo-EM structure of PML RBCC dimer reveals CC-mediated octopus-like nuclear body assembly mechanism” (Cell Discovery, 2024)
Results are given in words; binding and its absence hold for the method and conditions named. Some binding calls cover weakened binding; strength is not graded here.

Target: full-length PML-WT (PML isoform IV), mammalian two-hybrid fusions (human) (UniProt P29590)
Assay: two-hybrid; CheckMate mammalian two-hybrid (Promega) in HeLa Pml-/- cells; pG5-luc, pBIND-PML and pACT-PML at 1:1:1; dual-luciferase read-out 24 h after transfection; normalised to pACT vector:pBIND-PML = 1

full-length PML-WT (PML isoform IV), mammalian two-hybrid fusions (from UniProt P29590-5 1-633)
binding: binds
